Experimental findings from patent US12122842 (R AND D SYSTEMS, dated 2024) are described below.

The target of assay [1] is T1, recombinant human CD30 protein (UniProt P28908 19-385).
T1 chain: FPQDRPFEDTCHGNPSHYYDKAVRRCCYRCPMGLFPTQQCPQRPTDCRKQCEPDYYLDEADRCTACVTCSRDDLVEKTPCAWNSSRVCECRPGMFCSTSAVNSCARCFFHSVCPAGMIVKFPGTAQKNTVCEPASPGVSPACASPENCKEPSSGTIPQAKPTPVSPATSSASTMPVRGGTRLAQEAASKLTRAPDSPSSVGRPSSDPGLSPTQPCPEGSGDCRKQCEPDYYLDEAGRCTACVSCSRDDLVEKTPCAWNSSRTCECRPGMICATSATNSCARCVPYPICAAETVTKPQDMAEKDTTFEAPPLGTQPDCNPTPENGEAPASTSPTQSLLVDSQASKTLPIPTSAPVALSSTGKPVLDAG
Description: SPR, antibody immobilized, hCD30 as analyte.

Assay [2] addresses T1, recombinant human CD30 protein. Briefly: SPR, antibody immobilized, hCD30 as analyte, 1:1 Langmuir fit.

These are yes or no findings as the source states them, for the method shown. Some entries that bind do so weakly or less than the wild type.

B1: Mouse Anti-Human CD30 Monoclonal Antibody (Clone 81316.11) (antibody, V domains shown)
VH: QVQLKESGPGLVAPSQSLSITCTVSGFSLTSYGVHWVRQPPGKGLEWLGVIWAGETINYNLALMSRLSISKDNSKSQVFLKMNSLQTEDTAMYYCARDQGEYGNYGWYFDVWGAGTTVTVSS
VL: DIQMTQTTSSLSASLGDRVTISCSASQGISNYLNWYQQKPDGTVKLLIYYTSSLHSGVPSRFSGSGSGTDYSLTISNLEPEDIATYYCQHYSKLPPTFGGGTKLEIKR
notes: It is a mouse monoclonal, and the isotype control used beside it is MsIgG1; also called anti-hCD30 antibody; recombinant hCD30 antibody
Regarding B1, the binding entry in assay [1] and in assay [2] was “binds” each time.
